PubChem BioAssay AID1347423 (Functional Genomics Laboratory (NCATS/FGL), 2020)
The whole screen tested about 52,000 sequences, of which about 210 (0.4%) were called active.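 Rule for the calls: active = gene whose silencing raises cell survival under the drug, median off-target-corrected z-score across its silencing RNAs 2 or more; inactive = the rest.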 The list shows a part of the results.

assay: Resistance to Poly (ADP-Ribose) Polymerase inhibitor: Gene Identification via Genome-wide siRNA Screen; settings: mouse BRCA2 R2336H ES cells, olaparib, CellTiter-Glo viability; stronger effect = higher value
Summary of the method: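 Genome-wide siRNA screen (3 siRNAs/gene, 20 nM) in mouse ES cells carrying hypomorphic BRCA2 R2336H; olaparib 500 nM added 48 h post-transfection, CellTiter-Glo viability 72 h later. Normalized to plate-median negative control; MAD z-scores, gene median, seed-adjusted.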

Sequence | z-score
GGUAAAACCGACAUUGACCTT against Lphn1 | inactive: 0.767
GGUAUUCUUCUACACUCCATT against A530065E19Rik | inactive: -1.12
CGACAAGGGUUUUUAUUCUTT against Smcr8 | inactive: 1.6
GCUGCACGAUGCAUGGUUUTT against Accn3 | inactive: 0.648
GGUGUUUGCCUCAGAAAUCTT against Pctk2 | inactive: -0.338
GGACUCAUUUUCUUGAUGGTT against Mre11a | inactive: 0.821
GCAUGCGCCCUAAAGGAAATT against LOC574428 | inactive: -1.03
GGUCUUUGUACAUCAAUGUTT against A830058L05 | inactive: 0.0266
GCUUUGUUGCCCUACUACCTT against Pacrg | inactive: 0.131
GGGAACUAAGCAUUUUGAATT against Sec23a | inactive: 0.255
GGUUCGUAUUCUCUUGGUGTT against H28 | inactive: -0.526
GCGACAGAAGUGUCAUAAUTT against Phax | inactive: -1.19
GGCCACAUGCUUAAAGUGCTT against Slc7a9 | inactive: -0.573
GGAACUGUGGUUUUCUACCTT against 6530413N01Rik | inactive: -0.912
CCUUAUGAAUCCCGAGUACTT against Bmp6 | inactive: -2.59
GGGACAAAGGUUGAACAAGTT against Zfp36l1 | inactive: -1.96
GGCUGUGCUACAGUUUCUCTT against 1110007L15Rik | inactive: 2.82
CCACUUUCAGAAACAUUACTT against BC048546 | inactive: -0.631
GGAAGAGACUUAUAAUGGUTT against Olfr1214 | inactive: 1.98
CCUGUUUCUUUCAUGCAGUTT against 2310022A10Rik | inactive: -0.415
GGGCAUUGGUUCUCAGUGUTT against F730108M23Rik | inactive: -2.11
GCCCUAAGGAAGUACAGAGTT against Rgs19 | inactive: 1.27
GGCUCAGUUUACAAACCUGTT against D10Wsu93e | inactive: 1.42

Sequence | z-score
GGAUGGUUACUAUCAGACUTT against Sec6l1 | inactive: -0.55
GGACCAUUUCCAUAGAGACTT against 8430417G17Rik | inactive: 1.51
GGUCCAGAUUUACAACCCATT against Siat5 | inactive: 1.73
GCCACACUCCAUAAUUAGGTT against Als2cr13 | inactive: 0.111
GGUCUAGGUAGGAGAACUUTT against Elf4 | inactive: -1.98
GGGCUGACUUCCUAUGACCTT against Adra2c | inactive: 0.489
GCGACAGCUUUGCUAAGAUTT against Ndfip2 | inactive: -1.13
UGACUUUUGGACACGAGGCTT against Trim15 | inactive: -0.432
GGAAGUGUUUGAUGUCUUATT against Stk4 | inactive: -1.1
GGACAGUGGCACAAUGACATT against Dcbld1 | inactive: -1.17
GGUCUCGCUCCAAGGAAGATT against Sfrs10 | inactive: -1.48
CGUUGUAUUUGGAAAAGUCTT against Ppic | inactive: -1.84
GGGUUGUUUAAAAGGCCUUTT against 1110032D12Rik | inactive: 1.48
GGAUCCGUGCAGACAUUGUTT against Gstm1 | inactive: -0.564
CCACACGGUCUUAGAUGAGTT against Cdkl3 | inactive: 0.123
GCUGUAUCACAAGAAGCCGTT against D7Ertd462e | inactive: 0.282
GGACGUAAUACCUGAGGAUTT against Caps2 | inactive: -2.09
GGACAAGAAGGCAAAUUAGTT against Arhgap9 | inactive: 0.831
GGGCCAUACCAUUUGGGUGTT against 1700123D08Rik | inactive: 0.407
GUGAAACCUACAAAAAGCCTT against Ms4a4c | inactive: 1.32
GGAUAGCUUGUGUAGACACTT against Olfr42 | inactive: 1.63
GGCCAAGUCAAAAUAUUCUTT against Tm7sf1 | inactive: 1.92
CGUCUAAAAGCUAAAGAAUTT against Serpinb1b | inactive: -0.437

Rewritten field by field: part of the list above.
GCAUGCGCCCUAAAGGAAATT against LOC574428
  z-score: inactive: -1.03
GGUCUUUGUACAUCAAUGUTT against A830058L05
  z-score: inactive: 0.0266
GCUUUGUUGCCCUACUACCTT against Pacrg
  z-score: inactive: 0.131

(listing goes on)

Sequence | z-score
GCUCAUCACCUAUGCAGGCTT against Olfr371 | inactive: 0.219
GGACUGAAACUCGAAGCUATT against Pou4f2 | inactive: -0.195
GGGUUUCACAGGCAAACAGTT against Suclg1 | inactive: 1.86
GGAAAAACCUUGCUGGAACTT against Atp2a2 | inactive: -0.674
GGUGUUAACAAAAUGUACCTT against Phyh | inactive: 0.694
UCUGUAAACCCUUACGAUATT against Olfr1206 | inactive: -0.0844
CCUUGUUACACAGUUUAAATT against Aqp4 | inactive: 0.53
GGCUGUAAAACUCUGGUUUTT against V1ri6 | inactive: 0.858
GGAAUUCCACAGAUAAUGGTT against V1rg12 | inactive: 1.23
GGGCCUCAUCUUUGUGGUATT against Arf5 | inactive: 0.264
GGUGUAGUAAUAGGAUUUUTT against Ak3l | inactive: 0.278
GGCAACGAGUCAAGUGUGUTT against Ascl3 | inactive: 3.14
GGGCAAAAAUAGGAAGAACTT against Armcx2 | inactive: -0.43
GGAGAACACAGUACAGAUGTT against Zfp398 | inactive: 0.854
GGAAGAGAUGGAAUUAUUGTT against Sh3bp5 | inactive: -0.737
GGAAAUUUCUUAGCACGAATT against Ppp4r1 | inactive: 0.667
CCUCUGCGCAAUUUAGAGATT against Npb | inactive: 0.185
GCAAAACUUGACUACCGCCTT against Bzw1 | inactive: 0.493
GGUUCUGGAAAUGGAGACUTT against 1700022C02Rik | inactive: 0.274
GCUCCAUGGAAUAAUUAAATT against LOC432637 | inactive: 1.88
GCUGGUCGAUCAGAAAUGCTT against Cfi | inactive: 0.113
